Laboratory results from article doi:10.1101/2025.11.26.690680.
Results are given in words; binding and its absence hold for the method and conditions named. Binding seen in cells or lysates may run through a third protein. A result given as binding can be weak or reduced; the word gives no strength.

Protein sequences, listed by entry. Tags and fused reporters are not part of them. Lines headed by an entry give the natural chain unless they say otherwise; changes in a name come on top.
UniProt Q9H6L5: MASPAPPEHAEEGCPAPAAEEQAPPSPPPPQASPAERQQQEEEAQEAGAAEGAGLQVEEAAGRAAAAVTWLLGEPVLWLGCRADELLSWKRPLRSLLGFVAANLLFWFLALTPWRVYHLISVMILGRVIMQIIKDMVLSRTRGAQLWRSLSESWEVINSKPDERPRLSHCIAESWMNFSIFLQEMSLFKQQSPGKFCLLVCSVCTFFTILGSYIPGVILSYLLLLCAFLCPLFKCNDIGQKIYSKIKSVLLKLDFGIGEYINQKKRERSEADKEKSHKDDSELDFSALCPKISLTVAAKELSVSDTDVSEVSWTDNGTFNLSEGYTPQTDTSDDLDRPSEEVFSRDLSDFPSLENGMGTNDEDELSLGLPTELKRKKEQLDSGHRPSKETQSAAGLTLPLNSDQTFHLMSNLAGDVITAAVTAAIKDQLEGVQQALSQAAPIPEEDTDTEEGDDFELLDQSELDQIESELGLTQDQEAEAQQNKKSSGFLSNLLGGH
UniProt O14983: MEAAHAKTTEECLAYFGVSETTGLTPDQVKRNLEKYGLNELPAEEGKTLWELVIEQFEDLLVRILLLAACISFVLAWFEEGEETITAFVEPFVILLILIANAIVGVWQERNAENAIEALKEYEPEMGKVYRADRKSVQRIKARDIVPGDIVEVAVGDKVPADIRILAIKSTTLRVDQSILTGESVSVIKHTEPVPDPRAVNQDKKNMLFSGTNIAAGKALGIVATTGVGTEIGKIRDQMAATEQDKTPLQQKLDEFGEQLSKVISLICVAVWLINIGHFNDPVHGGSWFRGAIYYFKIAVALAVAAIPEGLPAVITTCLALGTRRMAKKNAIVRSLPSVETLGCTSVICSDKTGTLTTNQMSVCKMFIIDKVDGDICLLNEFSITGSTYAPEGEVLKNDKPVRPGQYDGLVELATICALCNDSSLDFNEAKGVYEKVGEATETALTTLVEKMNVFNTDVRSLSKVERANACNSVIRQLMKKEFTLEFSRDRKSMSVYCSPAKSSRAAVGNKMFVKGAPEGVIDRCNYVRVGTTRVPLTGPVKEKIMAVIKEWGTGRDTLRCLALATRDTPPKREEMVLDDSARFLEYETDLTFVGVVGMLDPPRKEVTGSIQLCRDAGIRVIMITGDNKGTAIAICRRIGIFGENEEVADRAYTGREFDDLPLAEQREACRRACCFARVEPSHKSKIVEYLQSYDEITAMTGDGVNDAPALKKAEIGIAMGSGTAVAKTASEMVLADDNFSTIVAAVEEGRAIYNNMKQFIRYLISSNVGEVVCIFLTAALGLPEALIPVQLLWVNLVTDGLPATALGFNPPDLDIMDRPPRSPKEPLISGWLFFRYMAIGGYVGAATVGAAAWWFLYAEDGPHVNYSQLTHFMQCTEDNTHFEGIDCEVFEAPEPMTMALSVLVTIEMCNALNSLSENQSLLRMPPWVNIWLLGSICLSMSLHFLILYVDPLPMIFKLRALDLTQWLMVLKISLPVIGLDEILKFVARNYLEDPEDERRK

Biological target: FAM134B (endogenous, human iPS cell-derived myocytes) (human (endogenous in hiPSC-MCs)) (UniProt Q9H6L5)
Test: co-IP

- binding: binds
Substance: sarcoplasmic/endoplasmic reticulum calcium ATPase 1 (SERCA1), endogenous, human iPS cell-derived myocytes (from UniProt O14983 1-1001)
